# Values from PubChem BioAssay AID1224828 (NIAID, 2016).
# Test: 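Knock-downs that increase or decrease LPS-induced p65 nuclear translocation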 (primary screen)
# Cell system: mouse RAW264.7 G9 macrophage reporter cells (GFP-p65, Tnf promoter-mCherry)
# Reagent: siRNA pool against mouse genes, 100 nM
# Time to read-out: 2 days siRNA transfection, then 40 min LPS before fixation
# Challenge: LPS (Salmonella minnesota R595) at 10 ng/ml
# Read-out: 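Imaged p65 nuclear translocation ratio, normalised to the plate median, converted to robust z-scores and averaged across two replicates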
# Scale: p65 translocation robust z-score: higher = more nuclear NF-kappaB p65 after LPS than the plate median; nuclear/cytoplasmic p65 ratio: higher = more nuclear NF-kappaB p65
# Hit rule: 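Active if robust z is above 3.3 (negative regulators) or below -1.56, the Tlr4 control median (positive regulators); activity score 50 or more; control wells not called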
# Calls: active = hit (p65 shift raised or lowered); inactive = no clear change
# The whole screen tested about 17,000 reagents; this is a random part of them. Of all reagents, 762 (4.5%) were called active. 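Active calls include both raised and lowered p65 entry, mostly lowered; wells with fewer than 50 cells lack a z-score.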 Raw values vary from plate to plate and are shown uncorrected. The numbers tell different reagents against one gene apart.
gene,reagent,p65 translocation robust z-score,"nuclear/cytoplasmic p65 ratio, rep 1","nuclear/cytoplasmic p65 ratio, rep 2",low cell count flag,Outcome
Sstr2,1,-0.12,1.49,1.42,enough cells to score,inactive
Ctsl,1,0.97,1.68,1.44,enough cells to score,inactive
Nav1,1,-1.97,1.47,1.29,enough cells to score,active
Cnot4,1,0.29,1.47,1.45,enough cells to score,inactive
Ffar4,1,0.42,1.47,1.45,enough cells to score,inactive
Kif5c,1,-0.62,1.35,1.34,enough cells to score,inactive
Chil3,1,0.19,1.63,1.98,enough cells to score,inactive
Gdpd2,1,-0.45,1.47,1.45,enough cells to score,inactive
Acoxl,1,0.19,1.36,1.5,enough cells to score,inactive
Slbp,1,0.69,1.68,1.62,enough cells to score,inactive
Gatb,1,0.1,1.45,1.41,enough cells to score,inactive
Cpne1,1,0.76,1.68,1.91,enough cells to score,inactive
Colgalt1,1,1.29,1.58,1.62,enough cells to score,inactive
Tulp1,1,0.11,1.57,1.47,enough cells to score,inactive
Lpin3,1,,1.64,1,fewer than 50 cells per well; well left out of scoring,inactive
Vmn1r216,1,1.47,1.57,1.4,enough cells to score,inactive
Cfap43,1,,1.28,1.37,fewer than 50 cells per well; well left out of scoring,inactive
Tmem106a,1,1.72,1.83,2.14,enough cells to score,inactive
Polr1c,1,0.63,1.53,1.27,enough cells to score,inactive
Col18a1,1,0.3,1.45,1.47,enough cells to score,inactive
Adhfe1,1,0.52,1.64,1.81,enough cells to score,inactive
Zfp369,1,0.54,1.44,1.35,enough cells to score,inactive
Trappc6a,1,,1.29,1.55,fewer than 50 cells per well; well left out of scoring,inactive

No new results follow: 4 of the entries above.
gene,reagent,p65 translocation robust z-score,"nuclear/cytoplasmic p65 ratio, rep 1","nuclear/cytoplasmic p65 ratio, rep 2",low cell count flag,Outcome
Polr1c,1,0.63,1.53,1.27,enough cells to score,inactive
Col18a1,1,0.3,1.45,1.47,enough cells to score,inactive
Adhfe1,1,0.52,1.64,1.81,enough cells to score,inactive
Zfp369,1,0.54,1.44,1.35,enough cells to score,inactive

The listing continues:
gene,reagent,p65 translocation robust z-score,"nuclear/cytoplasmic p65 ratio, rep 1","nuclear/cytoplasmic p65 ratio, rep 2",low cell count flag,Outcome
Spata19,1,2.31,1.7,1.29,enough cells to score,inactive
Smoc1,1,,1.54,1.08,fewer than 50 cells per well; well left out of scoring,inactive
Trpm1,1,-0.4,1.45,1.45,enough cells to score,inactive
Dhx29,1,0.31,1.58,1.63,enough cells to score,inactive
Vta1,1,,1.3,1.38,fewer than 50 cells per well; well left out of scoring,inactive
Bhlhb9,1,1.32,1.56,1.65,enough cells to score,inactive
Or10a4,1,0.42,1.74,1.42,enough cells to score,inactive
Krtap31-1,1,,1.12,0,fewer than 50 cells per well; well left out of scoring,inactive
Lzic,1,0.23,1.87,1.48,enough cells to score,inactive
Drd1,1,-1.21,1.35,1.39,enough cells to score,inactive
Polk,1,,1.81,1.39,fewer than 50 cells per well; well left out of scoring,inactive
Spidr,1,,1.43,1.69,fewer than 50 cells per well; well left out of scoring,inactive
Nr2f6,1,-0.49,1.36,1.37,enough cells to score,inactive
Stx1b,1,1.4,1.6,1.39,enough cells to score,inactive
Stx1b,2,-0.27,1.38,1.23,enough cells to score,inactive
AI837181,1,1.66,1.83,1.9,enough cells to score,inactive
Cd3g,1,0.03,1.46,1.39,enough cells to score,inactive
Ints14,1,,1.53,1.67,fewer than 50 cells per well; well left out of scoring,inactive
Usp10,1,-0.23,1.54,1.42,enough cells to score,inactive
Or7g31,1,-0.78,1.34,1.27,enough cells to score,inactive
Mmp14,1,0.5,1.49,1.42,enough cells to score,inactive
Map3k4,1,-0.08,1.77,1.29,enough cells to score,inactive
Nme5,1,-0.35,1.67,1.33,enough cells to score,inactive
Prom2,1,-0.64,1.33,1.11,enough cells to score,inactive
Kcng3,1,-0.22,1.43,1.36,enough cells to score,inactive
Klkb1,1,-0.53,1.37,1.34,enough cells to score,inactive
F5,1,1.16,1.64,1.5,enough cells to score,inactive
Senp1,1,1.15,1.68,1.76,enough cells to score,inactive
Dkk1,1,-1.68,1.25,1.14,enough cells to score,active
Slc67a1,1,0.81,1.53,1.73,enough cells to score,inactive
Exosc9,1,0.25,1.64,1.49,enough cells to score,inactive
Ube2c,1,-0.54,1.42,1.44,enough cells to score,inactive
Trim69,1,0.74,1.57,1.3,enough cells to score,inactive
Laptm4a,1,2.67,1.84,1.88,enough cells to score,inactive
Adgrl2,1,0.41,1.54,1.67,enough cells to score,inactive
Ccm2,1,-0.05,1.56,1.81,enough cells to score,inactive
